Assay results taken from PubChem BioAssay AID1259354 (Paczesny and Yang Labs, IUPUI and University of Michigan, 2018).
In all, about 78,000 compounds went through this assay and about 1,800 (2.3%) were called active. Inconclusive results, whose numbers are uncertain, are shown with a selection of clear calls. Rule as the data show it: active = inhibition above about 30%; inconclusive = mostly about 10% to 28%; inactive = weaker than that.

Amino acid sequences for entries named in this document (tags omitted). A change or cut given only in a name is not applied to a line headed by its entry.
UniProt Q01638: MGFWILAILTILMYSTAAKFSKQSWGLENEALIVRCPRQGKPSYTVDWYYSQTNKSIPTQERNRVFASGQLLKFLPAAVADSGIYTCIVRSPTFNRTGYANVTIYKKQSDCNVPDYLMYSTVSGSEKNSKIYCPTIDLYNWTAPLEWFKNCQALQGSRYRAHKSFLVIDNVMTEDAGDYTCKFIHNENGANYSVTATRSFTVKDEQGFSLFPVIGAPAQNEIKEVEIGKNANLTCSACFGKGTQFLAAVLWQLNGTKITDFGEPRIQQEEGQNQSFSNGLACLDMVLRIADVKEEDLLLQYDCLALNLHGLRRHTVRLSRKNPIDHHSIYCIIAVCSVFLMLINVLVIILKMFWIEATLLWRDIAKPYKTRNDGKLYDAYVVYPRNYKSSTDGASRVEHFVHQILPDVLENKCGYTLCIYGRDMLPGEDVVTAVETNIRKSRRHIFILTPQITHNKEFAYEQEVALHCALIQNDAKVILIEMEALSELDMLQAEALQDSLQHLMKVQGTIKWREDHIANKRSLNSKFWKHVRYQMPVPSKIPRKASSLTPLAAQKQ

The compounds below were run against Interleukin-1 receptor-like 1 (Homo sapiens) (UniProt Q01638) (assay: blocks human ST2 binding to IL-33, primary screen, biochemical, AlphaLISA (AID 1259354)). Settings: AlphaLISA ST2-Fc/biotin-IL-33 interaction, 1 h; at 17 µM, stronger effect = higher value.

Compound | inhibition
CC(C)OCCCn1c(SCC(=O)NC2CCCCC2)nc2c(sc3ccccc32)c1=O | inconclusive: 11%
Cc1ccc2nsnc2c1NC(=O)COc1ccccc1[N+](=O)[O-] | active: 32%
CCn1cnc(NC(=O)N2CCOc3ccc(Cl)cc3C2)n1 | inconclusive: 19%
O=C(Cc1ccccc1)N1CCN=C1SCc1ccccc1F | inactive
O=C(O)Cn1nnc(-c2ccc(F)cc2)n1 | inactive
COc1cccc(C2C(C(=O)OCc3ccccc3)=C(C)Nc3nnnn32)c1OC (stereo not given) | inconclusive: 10%
COc1ccc2cc3cc(C(=O)Nc4cc(C)ccc4OC)sc3nc2c1 | inconclusive: 26%
COCCN1CCN(C(=O)CC2C(=O)NCCN2Cc2cccs2)CC1 (stereo not given) | inactive
Cc1ccnn1-c1nc(-c2ccco2)cc(C(F)(F)F)n1 | inconclusive: 12%
O=C(C(Cc1ccc([N+](=O)[O-])cc1)N1C(=O)c2ccccc2C1=O)N1CCCCC1 (stereo not given) | inconclusive: 20%
COc1ccc(OC)c(NC(=O)c2cccnc2Oc2ccc(Cl)cc2)c1 | inconclusive: 19%
O=c1[nH]c2ccsc2c(=O)n1-c1ccc(F)cc1 | inconclusive: 10%
CCCN1C(=O)/C(=C\c2nc3ccccc3c(=O)n2-c2ccc(OC)cc2)c2ccccc21 | inconclusive: 21%
CN(C(=O)c1cc(CN2CCOCC2)on1)C1CCS(=O)(=O)C1 (stereo not given) | inconclusive: 18%
O=c1oc(-c2ccccc2)nc2sc3c(c12)CCCCC3 | active: 36%
COC(=O)c1c(NC(=O)c2ccc(OC)cc2)sc2c1CCN(C(C)C)C2 | inconclusive: 19%
CN(C(=O)c1ccn(C)n1)C(Cc1ccccc1)C1CCN(C(=O)/C=C/c2cccc(Cl)c2)CC1 (stereo not given) | inconclusive: 17%
NS(=O)(=O)CCCC(=O)N1CCOC(c2ccc(F)cc2)C1 (stereo not given) | inactive
C[n+]1cc(-c2ccccc2)nc(N2CCOCC2)n1 | inconclusive: 12%
Cc1cc(OC(C)C(=O)N2CCc3ccccc32)ccc1Cl (stereo not given) | inactive

Compound | inhibition
Cc1ccc(C)c(NS(=O)(=O)c2cccc3c2C(=O)c2ccccc2C3=O)c1 | active: 54%
Cc1ccsc1[C@@H]1CCN(C(=O)c2ccccc2-n2cccn2)C[C@H]1O | inconclusive: 15%
Cc1nc2c(c(=O)n1C)CCN(C(=O)C1CCOC(C)(C)C1)CC2 (stereo not given) | active: 31%
O=C(OCCN1C(=O)c2ccccc2C1=O)c1cc2ccccc2oc1=O | inactive
Cc1cccc(OCCCC(=O)Nc2ccccc2[N+](=O)[O-])c1 | inconclusive: 17%
COc1cccc(C(=O)NCCN2CCN(c3ccccc3)CC2)c1 | inactive
Oc1cccnc1CCc1ccccc1 | inconclusive: 22%
Cc1nc(SCCNC(=O)c2cc(C3CC3)[nH]n2)n[nH]1 | inactive
COc1cc(/C=C2/C(=O)N(c3ccc(Cl)c(Cl)c3)N=C2C)cc(OC)c1O | active: 35%
Cc1nnc(NC(=O)Nc2ccc(C)c(C)c2)s1 | inconclusive: 10%
CC(=O)C1=C(C)OC(N)=C(C#N)C1c1cc2c(cc1[N+](=O)[O-])OCO2 (stereo not given) | inconclusive: 14%
CCOc1ccc2c(=O)c(-c3ccccc3)c(C(F)(F)F)oc2c1C | inactive
Cc1ccccc1-c1cc(O)c2c(c1)CN(C(=O)C1C=CCN1)CCO2 (stereo not given) | inactive
CN1CCC(C)(CNC2CSCCSC2)C1 (stereo not given) | inconclusive: 10%
Cc1ccccc1NC(=O)CC(Cc1ccccc1)C1CCOC(C)(C)C1 (stereo not given) | inconclusive: 16%
Cc1cccc(C)c1NS(=O)(=O)c1cccnc1 | inactive
O=C(NCCN1CCOCC1)c1cc(COc2cccc(C(F)(F)F)c2)[nH]n1 | inconclusive: 14%
COc1cccc(-c2nc3ccc(C(=O)NCC4CCCCO4)cc3o2)c1 (stereo not given) | inconclusive: 10%
CC1=C(C(=O)Nc2cc(C)ccn2)C(c2ccc(Cl)cc2Cl)C2=C(CC(C)(C)CC2=O)N1 (stereo not given) | inconclusive: 11%
Cc1ccc(CN2CCSc3ccc(C(=O)N4CCN(C)CC4)cc32)cc1 | inconclusive: 14%

No new results follow: an excerpt of the list.
Compound | inhibition
Cc1ccc(C)c(NS(=O)(=O)c2cccc3c2C(=O)c2ccccc2C3=O)c1 | active: 54%
Cc1ccsc1[C@@H]1CCN(C(=O)c2ccccc2-n2cccn2)C[C@H]1O | inconclusive: 15%
Cc1nc2c(c(=O)n1C)CCN(C(=O)C1CCOC(C)(C)C1)CC2 (stereo not given) | active: 31%
O=C(OCCN1C(=O)c2ccccc2C1=O)c1cc2ccccc2oc1=O | inactive
Cc1cccc(OCCCC(=O)Nc2ccccc2[N+](=O)[O-])c1 | inconclusive: 17%
COc1cccc(C(=O)NCCN2CCN(c3ccccc3)CC2)c1 | inactive
Oc1cccnc1CCc1ccccc1 | inconclusive: 22%
Cc1nc(SCCNC(=O)c2cc(C3CC3)[nH]n2)n[nH]1 | inactive
COc1cc(/C=C2/C(=O)N(c3ccc(Cl)c(Cl)c3)N=C2C)cc(OC)c1O | active: 35%
Cc1nnc(NC(=O)Nc2ccc(C)c(C)c2)s1 | inconclusive: 10%
CC(=O)C1=C(C)OC(N)=C(C#N)C1c1cc2c(cc1[N+](=O)[O-])OCO2 (stereo not given) | inconclusive: 14%

Remaining list, next part:

Compound | inhibition
COc1cc(OC)c(NC(=O)c2ccc([N+](=O)[O-])c(C)c2)cc1Cl | inconclusive: 17%
O=C(O)c1ccccc1C(=O)N[C@H]1CO[C@H]2[C@@H]1OC[C@@H]2Nc1nccc(-c2ccc3c(c2)OCO3)n1 | inconclusive: 13%
COc1ccc(NC(=O)C2CCN(S(=O)(=O)c3cccs3)CC2)cc1Cl | inactive
N#C/C(=C\c1ccc2c(c1)OCO2)c1[nH]nc(N)c1C#N | inconclusive: 18%
c1cc(C2CN(c3ncnc4nc[nH]c34)C2)ccn1 | inconclusive: 17%
CC(C)CC(NC(=O)c1cnn(C)c1)c1nnc2n1CCNCC2 (stereo not given) | inactive
COc1ccc(NC2=CC(=NS(=O)(=O)c3ccc(C)cc3)c3ccccc3C2=O)cc1 | active: 92%
CCOc1ccc(-c2c(C#N)c(N)nc(SCC(=O)c3ccc(O)c(O)c3)c2C#N)cc1 | inconclusive: 25%
Cc1ccc(-n2c(C)nc3c(cnn3-c3ccc(Cl)cc3)c2=O)cc1 | inactive
CC(Cn1cccn1)n1ccnc1-c1ccc2cccc(F)c2n1 (stereo not given) | inconclusive: 13%
COc1ccccc1C=Nc1ccc(S(=O)(=O)Nc2ccccn2)cc1 | inactive
Cc1nc(C(C)NC(=O)CCc2c[nH]c3ccccc23)n[nH]1 (stereo not given) | inconclusive: 17%
O=c1cc(-c2ccc(O)cc2)oc2c([C@@H]3O[C@H](CO)[C@@H](O[C@@H]4O[C@H](CO)[C@@H](O)[C@H](O)[C@H]4O)[C@H](O)[C@H]3O)c(O)cc(O)c12 | active: 50%
CC1=C(C(N)=O)C(c2cccnc2)n2nc(SCc3ccccc3Cl)nc2N1 (stereo not given) | inactive
O=C1c2ccccc2C2=c3c1cccc3=CC(c1ccccc1)N=N2 (stereo not given) | inconclusive: 16%
Cc1ccccc1CCN1CCCC(CN(C)C(=O)c2ccc3ncccc3c2)C1 (stereo not given) | inconclusive: 10%
CN1CCN(Cc2cc(F)ccc2-n2cccn2)CC1CCO (stereo not given) | inconclusive: 11%
Cc1ccc(N2C(=O)S/C(=C\c3ccccc3)C2=O)cc1 | inactive
COCCNC(=O)/C=C1\Sc2ccccc2N(Cc2ccc(F)cc2)C1=O | inconclusive: 14%
CC1=NN(c2ccccc2)C(=O)/C1=C/c1ccc(Cl)cc1 | inconclusive: 13%
